At least one structure is not confirmed: it was looked up by name or label, or the drawing left a doubt.
Tested on: MV522 cell line
Test: 48 hour exposure, growth or viability by Trypan Blue Exclusion assay, target cell line
Type: cell-based
Conditions: read-out: Mean IC50 value, MV522 Target Cell Line, 48 hr exposure, mean ± SD, N = 3 unless otherwise indicated
Procedure: The MV522 cell line is a lung-derived adenocarcinoma cell line. In various embodiments of the invention, the MV522 cell line represents a “target” cell line. […] The two hour toxicity data represents the concentration of a given analog for which a two hour exposure will inhibit 50% of the DNA synthesis activity in a given cell line. The 48 hour exposure data represents the concentration at which a given analog with a 48 hour exposure will inhibit the growth or viability in a given cell line as defined by the standard Trypan Blue Exclusion assay.

SMILES | IC50 [µM]
CC1=C(OC(=O)CCCCC(=O)c2ccccc2)C2=C(C)C3(CC3)[C@@](C)(O)C(=O)C2=C1 [Analog 158] | > 175
CC1=C2C(=O)C(C)(OC(C)C)CC2C(O)C(=O)C12CC2 (stereo not drawn) [Analog 183] | > 275
CC1=C2C(=C[C@@](C)(CO[Si](C)(C)C(C)(C)C)[C@@H]2OC(=O)c2ccc(S(=O)(=O)F)cc2)C(=O)[C@](C)(O)C12CC2 [Analog 219] | > 0.052

Reference: patent publication US11241398B2, “Affinity medicant conjugate” (Califia Pharma Inc., priority 2014, dated 2022)
